Assay results reported in paper PMC3842841, “VacA, the vacuolating cytotoxin of Helicobacter pylori, binds to multimerin 1 on human platelets” (Thrombosis Journal, 2013).
Results are given in words; binding and its absence hold for the method and conditions named. A result given as binding can be weak or reduced; the word gives no strength. For some assays here: Where a sequence is shown, tags or fusion partners need not be part of it.

By UniProt entry, the sequences of proteins in these tests, tags left out. Where a name states a change or a piece, a line headed by the entry shows the natural chain unless it says otherwise.
UniProt Q48245: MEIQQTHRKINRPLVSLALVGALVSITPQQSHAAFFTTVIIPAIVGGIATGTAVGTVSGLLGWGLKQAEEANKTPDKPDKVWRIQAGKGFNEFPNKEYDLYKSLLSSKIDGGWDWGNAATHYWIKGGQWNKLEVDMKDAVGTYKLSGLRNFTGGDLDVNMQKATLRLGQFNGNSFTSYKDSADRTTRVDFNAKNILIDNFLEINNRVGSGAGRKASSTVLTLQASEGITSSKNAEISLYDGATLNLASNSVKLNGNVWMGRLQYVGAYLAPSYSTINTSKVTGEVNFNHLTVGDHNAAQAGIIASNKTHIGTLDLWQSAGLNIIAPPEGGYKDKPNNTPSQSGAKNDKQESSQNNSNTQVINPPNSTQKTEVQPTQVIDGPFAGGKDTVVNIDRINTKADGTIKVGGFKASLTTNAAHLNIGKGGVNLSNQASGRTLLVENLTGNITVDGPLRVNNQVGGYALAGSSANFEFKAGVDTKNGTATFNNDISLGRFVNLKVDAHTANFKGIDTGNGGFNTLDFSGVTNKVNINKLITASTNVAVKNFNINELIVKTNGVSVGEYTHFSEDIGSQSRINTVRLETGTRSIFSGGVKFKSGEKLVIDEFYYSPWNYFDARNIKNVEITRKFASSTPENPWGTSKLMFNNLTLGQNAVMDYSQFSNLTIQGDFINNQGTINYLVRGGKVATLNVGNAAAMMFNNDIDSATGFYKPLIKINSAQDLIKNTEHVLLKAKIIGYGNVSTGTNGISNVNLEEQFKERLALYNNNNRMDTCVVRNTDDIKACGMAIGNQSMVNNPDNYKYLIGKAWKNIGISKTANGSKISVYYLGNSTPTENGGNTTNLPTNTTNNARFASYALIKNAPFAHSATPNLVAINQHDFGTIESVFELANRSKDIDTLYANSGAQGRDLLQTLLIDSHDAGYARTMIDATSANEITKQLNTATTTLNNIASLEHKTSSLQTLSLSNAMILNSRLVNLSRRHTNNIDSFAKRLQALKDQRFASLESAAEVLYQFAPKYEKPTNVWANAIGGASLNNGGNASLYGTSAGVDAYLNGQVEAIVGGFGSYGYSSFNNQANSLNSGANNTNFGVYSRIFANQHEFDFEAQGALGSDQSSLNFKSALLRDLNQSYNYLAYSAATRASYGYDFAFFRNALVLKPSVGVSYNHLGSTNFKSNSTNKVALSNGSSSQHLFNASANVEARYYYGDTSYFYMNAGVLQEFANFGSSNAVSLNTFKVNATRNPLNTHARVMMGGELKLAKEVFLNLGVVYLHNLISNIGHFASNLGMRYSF

Legend:
[1] = molecular target: T1, Glutathione S-transferase (GST)-fusion protein of multimerin 1 (291a.a. ~ 391a.a.) (human) (UniProt Q13201); assay: pull-down; GST-MMRN1 (291-391) with VacA; no details given; both purified
T1 sequence: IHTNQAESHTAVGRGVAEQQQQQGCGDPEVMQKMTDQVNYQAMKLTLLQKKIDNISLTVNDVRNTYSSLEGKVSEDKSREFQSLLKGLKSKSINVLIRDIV

[2] = molecular target: T2, synthetic peptide 3 of MMRN1 (321-340) (human); assay: far-Western, overlay or dot blot; peptides (2.5 μL, 5 mM) spotted on PVDF membrane, blocked with 1% BSA; 10 ng/mL VacA, 1 h at room temperature; detected with anti-VacA polyclonal antibody; both purified
T2 sequence (peptide): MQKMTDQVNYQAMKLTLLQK

VacA, the vacuolating cytotoxin of Helicobacter pylori (from UniProt Q48245)
binding [1]: binds | binding [2]: binds
